{"source": "patent US8785682B2", "about": "“Tetranor PGDM: a biomarker of PGD2 synthesis in vivo” (The Trustees of the University of Pennsylvania, priority 2007, dated 2014)", "system": "biosynthesis of PGD2", "assay": "Urinary tetranor PGDM in PGD synthase knockout mice", "assay_type": "in vivo, mouse", "details": "mean", "data": [{"smiles": "O=C(O)CCCCC(=O)CC[C@H]1C(=O)C[C@H](O)[C@@H]1CCC(=O)O", "note": "[tetranor PGDM, 11,15-dioxo-9α-hydroxy-2,3,4,5-tetranor-prostan-1,20-dioic acid]", "values": [{"measurement": "urinary tetranor PGDM, deletion of H-PGDS", "setting": "H-PGDS knockout mice, 24 h urine, P<0.0001 vs wild type", "result": 1.0, "unit": "ng/mg creatinine"}, {"measurement": "urinary tetranor PGDM, deletion of L-PGDS", "setting": "L-PGDS knockout mice, 24 h urine, p<0.05 vs wild type", "result": 5.1, "unit": "ng/mg creatinine"}, {"measurement": "urinary tetranor PGDM, wild type mice", "setting": "wild type C57/BL6, 24 h urine", "result": 8.6, "unit": "ng/mg creatinine"}]}]}
